Here are results for 35 targets from the supplement of paper PMC10849652.

Chains of the proteins cited; added tags and fusions are not shown. Lines headed by an entry give the natural chain unless they say otherwise; changes in a name come on top.
UniProt Q5FBB7: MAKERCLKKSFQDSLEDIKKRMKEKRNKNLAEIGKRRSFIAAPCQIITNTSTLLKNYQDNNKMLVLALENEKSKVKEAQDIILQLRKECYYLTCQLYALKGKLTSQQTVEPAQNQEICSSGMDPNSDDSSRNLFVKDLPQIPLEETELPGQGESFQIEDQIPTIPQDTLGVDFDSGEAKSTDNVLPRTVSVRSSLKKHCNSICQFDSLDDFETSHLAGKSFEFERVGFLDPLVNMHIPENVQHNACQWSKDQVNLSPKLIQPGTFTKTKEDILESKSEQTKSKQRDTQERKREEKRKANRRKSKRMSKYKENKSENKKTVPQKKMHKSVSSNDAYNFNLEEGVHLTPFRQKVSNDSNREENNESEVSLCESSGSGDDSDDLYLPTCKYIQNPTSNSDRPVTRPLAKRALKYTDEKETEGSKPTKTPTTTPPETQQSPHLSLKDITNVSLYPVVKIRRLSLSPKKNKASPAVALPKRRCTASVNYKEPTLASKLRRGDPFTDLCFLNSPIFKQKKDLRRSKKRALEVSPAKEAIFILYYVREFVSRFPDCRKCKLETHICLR
UniProt P60059: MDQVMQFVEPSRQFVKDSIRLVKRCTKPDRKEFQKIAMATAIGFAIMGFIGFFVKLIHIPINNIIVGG
UniProt Q01105, whole entry, looked up: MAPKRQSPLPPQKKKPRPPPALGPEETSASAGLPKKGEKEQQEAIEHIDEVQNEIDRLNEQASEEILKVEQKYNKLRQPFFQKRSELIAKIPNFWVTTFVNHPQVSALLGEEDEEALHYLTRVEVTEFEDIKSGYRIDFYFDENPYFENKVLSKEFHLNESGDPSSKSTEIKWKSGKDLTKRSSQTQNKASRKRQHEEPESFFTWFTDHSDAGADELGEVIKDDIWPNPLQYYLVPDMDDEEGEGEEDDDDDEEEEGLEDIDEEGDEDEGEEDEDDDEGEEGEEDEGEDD
UniProt Q8IUQ4: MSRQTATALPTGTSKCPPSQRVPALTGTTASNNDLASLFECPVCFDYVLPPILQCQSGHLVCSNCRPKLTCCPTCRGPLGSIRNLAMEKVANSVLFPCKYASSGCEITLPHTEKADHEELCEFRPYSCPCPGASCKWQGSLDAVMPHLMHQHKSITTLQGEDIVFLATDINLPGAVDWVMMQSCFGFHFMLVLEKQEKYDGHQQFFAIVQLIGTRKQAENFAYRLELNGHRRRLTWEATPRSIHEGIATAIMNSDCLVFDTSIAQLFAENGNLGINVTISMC
UniProt Q9H9S3, whole entry, looked up: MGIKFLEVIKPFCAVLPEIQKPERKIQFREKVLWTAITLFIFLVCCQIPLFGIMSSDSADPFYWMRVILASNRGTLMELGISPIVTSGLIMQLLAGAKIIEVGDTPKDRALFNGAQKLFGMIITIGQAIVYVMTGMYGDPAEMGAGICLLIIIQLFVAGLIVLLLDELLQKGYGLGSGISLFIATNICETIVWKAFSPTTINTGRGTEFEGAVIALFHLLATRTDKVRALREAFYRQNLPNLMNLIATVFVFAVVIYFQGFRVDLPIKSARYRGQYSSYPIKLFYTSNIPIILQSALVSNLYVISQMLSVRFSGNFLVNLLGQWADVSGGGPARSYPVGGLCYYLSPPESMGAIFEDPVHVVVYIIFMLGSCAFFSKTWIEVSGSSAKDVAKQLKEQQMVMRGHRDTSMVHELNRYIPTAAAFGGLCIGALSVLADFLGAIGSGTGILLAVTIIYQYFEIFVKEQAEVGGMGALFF
UniProt P36955: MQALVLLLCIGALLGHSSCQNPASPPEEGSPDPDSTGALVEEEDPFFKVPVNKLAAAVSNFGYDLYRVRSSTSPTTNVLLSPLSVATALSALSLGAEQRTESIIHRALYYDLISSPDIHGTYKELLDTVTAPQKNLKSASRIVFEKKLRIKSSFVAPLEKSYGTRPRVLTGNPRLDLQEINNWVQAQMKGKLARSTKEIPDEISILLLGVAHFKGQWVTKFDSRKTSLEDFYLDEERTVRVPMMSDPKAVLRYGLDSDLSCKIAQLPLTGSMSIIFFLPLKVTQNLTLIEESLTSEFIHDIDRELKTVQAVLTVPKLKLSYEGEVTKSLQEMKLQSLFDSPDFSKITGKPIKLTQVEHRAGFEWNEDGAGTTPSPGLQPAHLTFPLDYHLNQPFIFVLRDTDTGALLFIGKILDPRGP
UniProt Q96EB6: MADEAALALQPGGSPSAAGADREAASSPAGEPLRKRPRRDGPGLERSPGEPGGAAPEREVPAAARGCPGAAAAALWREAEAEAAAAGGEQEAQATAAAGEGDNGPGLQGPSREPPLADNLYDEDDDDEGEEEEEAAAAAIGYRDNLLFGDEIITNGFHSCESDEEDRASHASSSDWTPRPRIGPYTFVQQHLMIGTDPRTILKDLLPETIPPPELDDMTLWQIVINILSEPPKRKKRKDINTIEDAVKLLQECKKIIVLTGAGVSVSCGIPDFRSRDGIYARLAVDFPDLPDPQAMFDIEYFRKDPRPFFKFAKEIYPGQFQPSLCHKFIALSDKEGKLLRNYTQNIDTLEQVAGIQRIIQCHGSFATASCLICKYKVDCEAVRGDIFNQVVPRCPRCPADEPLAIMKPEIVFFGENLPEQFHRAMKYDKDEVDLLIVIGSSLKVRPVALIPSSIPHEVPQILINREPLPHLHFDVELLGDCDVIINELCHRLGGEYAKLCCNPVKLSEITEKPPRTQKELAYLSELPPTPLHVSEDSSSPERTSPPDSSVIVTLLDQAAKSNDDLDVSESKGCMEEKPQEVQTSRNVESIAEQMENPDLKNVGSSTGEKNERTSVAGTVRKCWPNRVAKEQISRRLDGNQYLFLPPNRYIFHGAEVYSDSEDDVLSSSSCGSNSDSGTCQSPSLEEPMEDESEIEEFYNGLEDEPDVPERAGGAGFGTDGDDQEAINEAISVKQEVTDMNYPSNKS
UniProt Q13228: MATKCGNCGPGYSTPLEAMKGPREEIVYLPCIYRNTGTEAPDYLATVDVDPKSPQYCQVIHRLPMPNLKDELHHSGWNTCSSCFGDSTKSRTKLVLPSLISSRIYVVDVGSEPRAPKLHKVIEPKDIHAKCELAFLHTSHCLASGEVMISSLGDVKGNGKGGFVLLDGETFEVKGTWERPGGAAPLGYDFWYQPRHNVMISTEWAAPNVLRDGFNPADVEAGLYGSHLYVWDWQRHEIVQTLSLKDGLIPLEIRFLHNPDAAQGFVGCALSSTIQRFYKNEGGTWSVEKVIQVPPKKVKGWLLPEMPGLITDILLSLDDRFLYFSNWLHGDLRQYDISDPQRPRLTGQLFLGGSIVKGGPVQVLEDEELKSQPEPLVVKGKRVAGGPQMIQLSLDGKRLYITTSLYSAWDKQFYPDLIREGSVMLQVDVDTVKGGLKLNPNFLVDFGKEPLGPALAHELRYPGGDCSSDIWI
UniProt Q587I9: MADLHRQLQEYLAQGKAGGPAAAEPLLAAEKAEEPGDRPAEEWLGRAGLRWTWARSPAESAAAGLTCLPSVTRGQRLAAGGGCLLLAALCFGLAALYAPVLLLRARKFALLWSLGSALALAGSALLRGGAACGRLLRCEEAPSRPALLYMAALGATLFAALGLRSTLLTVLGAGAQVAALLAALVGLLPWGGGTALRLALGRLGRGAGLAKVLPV
UniProt P50454: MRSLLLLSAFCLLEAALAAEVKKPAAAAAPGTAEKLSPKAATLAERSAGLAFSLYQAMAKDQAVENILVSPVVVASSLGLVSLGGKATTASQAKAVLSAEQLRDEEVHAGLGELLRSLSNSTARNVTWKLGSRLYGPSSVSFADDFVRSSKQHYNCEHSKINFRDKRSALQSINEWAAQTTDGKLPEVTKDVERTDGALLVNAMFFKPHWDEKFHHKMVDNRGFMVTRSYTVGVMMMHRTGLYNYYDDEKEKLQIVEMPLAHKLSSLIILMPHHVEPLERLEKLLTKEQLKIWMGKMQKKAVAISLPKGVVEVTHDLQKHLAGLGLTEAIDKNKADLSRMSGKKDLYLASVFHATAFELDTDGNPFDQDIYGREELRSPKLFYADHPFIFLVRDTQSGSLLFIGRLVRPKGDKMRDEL
UniProt Q8N6T7, whole entry, looked up: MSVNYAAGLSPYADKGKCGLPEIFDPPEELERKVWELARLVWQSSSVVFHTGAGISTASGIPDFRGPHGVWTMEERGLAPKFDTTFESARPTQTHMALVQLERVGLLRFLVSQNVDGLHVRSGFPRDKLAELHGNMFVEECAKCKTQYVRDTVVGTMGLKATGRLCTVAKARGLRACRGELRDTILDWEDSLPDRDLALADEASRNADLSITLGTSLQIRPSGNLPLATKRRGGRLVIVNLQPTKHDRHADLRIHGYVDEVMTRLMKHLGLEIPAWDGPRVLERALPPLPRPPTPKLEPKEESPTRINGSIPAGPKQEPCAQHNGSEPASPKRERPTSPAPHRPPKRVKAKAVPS
UniProt Q9BQE4, whole entry, looked up: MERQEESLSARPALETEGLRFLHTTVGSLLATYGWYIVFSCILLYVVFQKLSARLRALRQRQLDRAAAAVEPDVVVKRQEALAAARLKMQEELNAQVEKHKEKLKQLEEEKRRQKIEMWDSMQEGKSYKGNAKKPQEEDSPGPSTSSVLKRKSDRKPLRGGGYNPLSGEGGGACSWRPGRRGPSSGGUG
UniProt O75533, whole entry, looked up: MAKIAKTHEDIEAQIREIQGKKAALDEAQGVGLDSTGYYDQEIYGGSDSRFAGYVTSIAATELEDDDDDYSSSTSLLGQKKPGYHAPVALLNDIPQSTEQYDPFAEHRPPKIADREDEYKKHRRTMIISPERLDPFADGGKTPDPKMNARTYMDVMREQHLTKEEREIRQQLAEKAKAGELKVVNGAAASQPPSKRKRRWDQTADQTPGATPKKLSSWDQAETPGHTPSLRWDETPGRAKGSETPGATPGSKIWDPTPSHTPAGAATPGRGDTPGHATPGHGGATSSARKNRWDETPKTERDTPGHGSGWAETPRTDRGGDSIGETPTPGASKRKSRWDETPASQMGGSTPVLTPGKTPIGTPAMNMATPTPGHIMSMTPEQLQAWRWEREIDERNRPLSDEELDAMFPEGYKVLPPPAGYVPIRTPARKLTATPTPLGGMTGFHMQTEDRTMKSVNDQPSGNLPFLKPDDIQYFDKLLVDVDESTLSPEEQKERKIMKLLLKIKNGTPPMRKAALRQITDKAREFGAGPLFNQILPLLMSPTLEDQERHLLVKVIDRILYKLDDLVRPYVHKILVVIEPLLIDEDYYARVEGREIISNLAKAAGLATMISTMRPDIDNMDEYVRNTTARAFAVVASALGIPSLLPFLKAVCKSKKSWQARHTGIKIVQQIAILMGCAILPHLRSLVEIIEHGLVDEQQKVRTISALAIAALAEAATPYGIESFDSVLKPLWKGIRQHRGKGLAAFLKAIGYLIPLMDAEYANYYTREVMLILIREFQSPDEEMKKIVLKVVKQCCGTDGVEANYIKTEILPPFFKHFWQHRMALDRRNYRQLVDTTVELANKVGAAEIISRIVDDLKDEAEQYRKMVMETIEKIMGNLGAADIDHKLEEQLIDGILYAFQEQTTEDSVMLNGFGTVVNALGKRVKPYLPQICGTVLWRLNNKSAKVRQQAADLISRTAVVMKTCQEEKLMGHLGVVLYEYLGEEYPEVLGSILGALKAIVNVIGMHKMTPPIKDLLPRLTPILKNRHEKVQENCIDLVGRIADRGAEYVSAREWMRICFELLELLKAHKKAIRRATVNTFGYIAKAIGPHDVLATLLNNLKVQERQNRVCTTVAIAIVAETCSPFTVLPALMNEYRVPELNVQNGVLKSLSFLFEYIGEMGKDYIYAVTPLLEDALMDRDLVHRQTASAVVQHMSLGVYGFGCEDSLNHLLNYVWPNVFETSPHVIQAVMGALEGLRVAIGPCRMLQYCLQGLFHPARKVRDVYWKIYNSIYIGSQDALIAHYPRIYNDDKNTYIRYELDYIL
UniProt P84101: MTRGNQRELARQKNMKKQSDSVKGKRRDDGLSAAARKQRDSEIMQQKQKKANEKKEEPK
UniProt P08697: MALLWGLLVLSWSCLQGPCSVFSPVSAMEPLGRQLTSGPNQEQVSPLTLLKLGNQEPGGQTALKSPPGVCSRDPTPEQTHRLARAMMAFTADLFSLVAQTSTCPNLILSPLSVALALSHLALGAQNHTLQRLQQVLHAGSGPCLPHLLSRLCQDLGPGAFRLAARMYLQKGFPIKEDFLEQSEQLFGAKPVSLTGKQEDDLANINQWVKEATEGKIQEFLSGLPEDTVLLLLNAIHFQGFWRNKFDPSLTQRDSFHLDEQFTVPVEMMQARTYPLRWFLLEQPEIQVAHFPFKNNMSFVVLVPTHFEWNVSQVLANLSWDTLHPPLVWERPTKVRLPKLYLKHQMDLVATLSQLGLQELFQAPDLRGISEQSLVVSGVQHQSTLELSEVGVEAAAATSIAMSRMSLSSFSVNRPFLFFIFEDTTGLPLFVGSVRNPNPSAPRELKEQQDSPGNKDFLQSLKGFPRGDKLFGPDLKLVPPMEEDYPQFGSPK
UniProt P55822: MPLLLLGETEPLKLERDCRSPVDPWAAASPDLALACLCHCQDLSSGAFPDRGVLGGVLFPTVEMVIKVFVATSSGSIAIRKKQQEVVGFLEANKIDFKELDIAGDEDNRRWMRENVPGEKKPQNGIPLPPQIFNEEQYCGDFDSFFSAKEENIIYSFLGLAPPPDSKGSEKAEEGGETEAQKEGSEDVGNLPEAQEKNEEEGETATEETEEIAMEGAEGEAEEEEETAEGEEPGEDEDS

Some of the results follow.

Compound in the test: c1cn2cc(-c3ccc4cn[nH]c4c3)nc(Nc3ccc(N4CCOCC4)cc3)c2n1 [entospletinib]
Put plainly: log2 fold change, soluble protein after heating vs DMSO (PISA); higher = thermal stabilisation; K562 cells, 10 uM, 30 min; active = over 0.2 and 3.5 SD of the protein, either way, in both replicates (recomputed). In short, it runs like this: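 Soluble protein was defined as the supernatant after 21,000xg for 90 min. It came from K562 cells at 2×10^6 cells/mL given 10 μM compound for 30 min, heated in aliquots for 3 min across 48°C-58°C, pooled, and extracted in PBS with 0.5% NP-40 at 4°C, and was quantified by TMTpro 16plex LC-MS/MS with equalised channel sums. Thermal stability against control samples, from duplicates, is reported as log2 fold change.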

Turning to SF1 isoform 5 (UniProt Q15637), the log2 fold change is inactive: 0.034.

Take SGO1 (UniProt Q5FBB7): the log2 fold change is inactive: -0.036.

As for SGPP1 (UniProt Q9BX95), the log2 fold change was inactive: -0.216.

Consider SHMT1 (UniProt P34896), for which the log2 fold change was inactive: -0.052.

Regarding SEC62 (UniProt Q99442), the log2 fold change is inactive: 0.037.

Regarding SEC61G (UniProt P60059), the log2 fold change is inactive: 0.064.

As to SH3BP5 (UniProt O60239), the log2 fold change was inactive: 0.023.

As for SET isoform 2 (UniProt Q01105), the log2 fold change is inactive: 0.049.

Consider SIAH1 isoform 2 (UniProt Q8IUQ4), for which the log2 fold change is inactive: -0.182.

As to SEC61A2 (UniProt Q9H9S3), the log2 fold change is inactive: -0.007.

As for SERPINF1 (UniProt P36955), the log2 fold change was inactive: 0.066.

Turning to SH3GLB1 isoform 2 (UniProt Q9Y371), the log2 fold change is inactive: 0.035.

Consider SERBP1 isoform 3 (UniProt Q8NC51), for which the log2 fold change was inactive: 0.014.

Take SIRT1 (UniProt Q96EB6): the log2 fold change is inactive: -0.005.

Turning to SELENBP1 isoform 4 (UniProt Q13228), the log2 fold change is inactive: -0.01.

Consider SFT2D3 (UniProt Q587I9), for which the log2 fold change is inactive: 0.017.

Consider SERPINH1 (UniProt P50454), for which the log2 fold change was inactive: 0.003.

As to SFXN4 isoform 3 (UniProt Q6P4A7), the log2 fold change is inactive: -0.123.

For SIRT6 (UniProt Q8N6T7), the log2 fold change was inactive: -0.092.

On to SF1 (UniProt H7C0N4), for which the log2 fold change was inactive: 0.027.

As to SFT2D1 (UniProt Q8WV19), the log2 fold change was inactive: 0.007.

In the case of SIGIRR (UniProt H0YDR5), the log2 fold change was inactive: -0.071.

In the case of SEL1L (UniProt Q9UBV2), the log2 fold change is inactive: 0.083.

Consider SERPINA12 (UniProt Q8IW75), for which the log2 fold change is inactive: 0.009.

For the target SELENOS (UniProt Q9BQE4), the log2 fold change is inactive: 0.002.

SEPTIN2 isoform 2 (UniProt Q15019): the log2 fold change was inactive: -0.017.

Regarding SF3B1 (UniProt O75533), the log2 fold change was inactive: -0.007.

Consider SEPHS2 (UniProt Q99611), for which the log2 fold change was inactive: -0.017.

Take SEPTIN6 (UniProt Q14141): the log2 fold change is inactive: 0.014.

For the target SF1 isoform 6 (UniProt Q15637), the log2 fold change was inactive: 0.101.

For the target SERF2 (UniProt P84101), the log2 fold change is inactive: 0.07.

On to SF3A3 (UniProt Q12874), for which the log2 fold change was inactive: 0.054.

With SERPINF2 (UniProt P08697), the log2 fold change was inactive: 0.173.

For SH3BGR (UniProt P55822), the log2 fold change was inactive: -0.06.

In the case of SEC61A1 (UniProt P61619), the log2 fold change is inactive: 0.051.
